Results are given in words; binding and its absence hold for the method and conditions named.
Molecular target: RSV nucleoprotein (N), full length, residues 1–391 (respiratory syncytial virus (RSV)) (UniProt P03418)
Experiment: condition: only after addition of RNA oligo Tr45 (20 uM RNA to 13.3 uM N^0–PNTD); SEC; purified N^0–PNTD (13.3 uM) incubated with RNA oligo Tr45 (20 uM), 1 h, room temperature, 20 mM HEPES pH 7.4, 200 mM NaCl; Superdex 200 Increase 10/300 GL; SDS-PAGE of peak 0; both purified

Amino acid sequences for entries named in this document (tags omitted). Residues count along the entry.
UniProt P03418: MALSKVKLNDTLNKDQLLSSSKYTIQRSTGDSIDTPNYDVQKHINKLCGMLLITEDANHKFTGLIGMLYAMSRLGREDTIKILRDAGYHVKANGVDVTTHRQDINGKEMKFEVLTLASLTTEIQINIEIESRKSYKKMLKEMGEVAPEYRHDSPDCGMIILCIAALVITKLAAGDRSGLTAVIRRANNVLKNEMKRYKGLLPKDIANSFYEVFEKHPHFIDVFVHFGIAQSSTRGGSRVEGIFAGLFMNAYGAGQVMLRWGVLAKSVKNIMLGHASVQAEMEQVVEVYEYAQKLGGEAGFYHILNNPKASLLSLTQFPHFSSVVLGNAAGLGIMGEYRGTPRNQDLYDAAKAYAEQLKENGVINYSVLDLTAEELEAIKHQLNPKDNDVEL
UniProt P03421, residues 1-126: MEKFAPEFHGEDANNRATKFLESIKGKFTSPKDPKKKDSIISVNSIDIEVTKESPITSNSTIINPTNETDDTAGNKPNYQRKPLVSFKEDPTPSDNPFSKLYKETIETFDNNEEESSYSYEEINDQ

“N-terminal domain of the RSV phosphoprotein (PNTD), residues 1–126 (from UniProt P03421 1-126) (domain or fragment)” was tested, and the binding was “no binding”.
